Results published in PubChem BioAssay AID493014 (National Center for Advancing Translational Sciences (NCATS), 2011).
Some of the results follow. These are further read-outs of the screen, such as a control signal, another cell line or another target. No call is given for them. Most of these compounds were active or inconclusive in the main read-out, so they are no random draw. Words in brackets tell the shape of the fitted curve; partial curves, single points and poor fits give uncertain potencies.

Assay: qHTS Assay to Find Inhibitors of Chronic Active B-Cell Receptor Signaling
Conditions: ABC-DLBCL IkBa-CBG/CBR reporter, luminescence ratio (green luciferase fused to IkBa over red control in TMD8 lymphoma cells), 4 h
Method in brief: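 TMD8 human ABC-DLBCL cells with doxycycline-inducible IκBα–green luciferase fusion and unfused red luciferase, in 0.5% FBS medium; compounds up to 46 uM, 4 h at 37C. Green/red luminescence ratio, filter-overlap corrected, fitted to concentration-response curves.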

[1] = measured here: CBR red luminescence, cell number
[2] = measured here: IkBa-CBG green luminescence

With COc1ccc(Nc2nc(NCc3ccco3)nc(N)c2[N+](=O)[O-])cc1 the AC50 [1] was 15.8 µM [rising, single point].
For Clc1ccc2nc(-c3ccc4c(c3)OCO4)cn2c1, the AC50 [1] was 12.6 µM [falling, partial curve].
For O=C(CSc1ccc(-c2ccco2)nn1)NCc1ccc(Cl)cc1, the AC50 [1] was 14.6 µM [falling, partial curve, poor fit].
With COc1cc(C(=S)N2CCOCC2)cc(OC)c1OC(=O)Cc1ccc(F)cc1 the AC50 [1] was 6.51 µM [rising, single point].
For COc1ccc(S(=O)(=O)N2CCSCC2)cc1C(N)=O, the AC50 [1] was 17.8 µM [falling, single point].
For COc1ccc(C(=O)Nn2c(SCc3cccc([N+](=O)[O-])c3)nc3ccccc3c2=O)cc1, the AC50 [1] was 8.2 µM [falling, partial curve].
With CCCC(=O)Nc1ccc2c(c1)nc1n2CCSC1 the AC50 [1] was 8.2 µM [rising, single point].
In the case of Cc1ccc(C(=O)NC2CC(=O)N(c3ccc4c(c3)OCCO4)C2)cc1[N+](=O)[O-] (stereo not given), the AC50 [1] is reported as 23.1 µM [rising, partial curve, poor fit].
In the case of CCOC(=O)c1[nH]c(CO)c(C(=O)OCC)c1C, the AC50 [1] is reported as 2.82 µM [rising, full curve, poor fit].
In the case of Cc1c(CC(=O)NCC(=O)NCC(=O)O)c(=O)oc2c(C)c3oc4c(c3cc12)CCCC4, the AC50 [1] is reported as 0.708 µM [rising, full curve, poor fit].
With COc1ccc(/C=C/c2nc3ccccc3n2Cc2ccccc2OC)cc1 the AC50 [1] was 32.6 µM [falling, single point].
In the case of CC(c1ccco1)N(C(=O)c1ccc(C#N)cc1)c1ccccn1 (stereo not given), the AC50 [1] is reported as 16.4 µM [rising, single point].
With COc1ccc2c(c1)c(C(=O)N/N=C/c1ccccc1Cl)c(C)n2C the AC50 [1] was 35.5 µM [falling, single point].
With NC(=O)C(c1ccc(F)cc1)c1ccc(C(=O)c2ccccc2)cc1 (stereo not given) the AC50 [1] was 11.2 µM [falling, single point].
With O=C(/C=C/c1cccs1)NNC(=O)c1ccccc1 the AC50 [1] was 9.2 µM [falling, partial curve].
In the case of CCOc1ccc(C(=O)NC2CCN(C(=O)Nc3ccccc3OC)CC2)cc1, the AC50 [1] is reported as 13 µM [rising, partial curve].
In the case of COc1ccc2c(C)cc(C)nc2n1, the AC50 [1] is reported as 11.2 µM [falling, partial curve].
For NC(=O)c1ccc2nc(NC(=O)c3ccc(N)cc3)sc2c1, the AC50 [1] was 1.26 µM [falling, full curve, poor fit].
For Cc1c(C#N)c(NC(=O)CCl)n(Cc2ccc(F)cc2)c1C, the AC50 [1] was 10 µM [falling, partial curve].
For CCc1nnc(NC(=O)CN2CCN(c3cccc(OC)c3)CC2)s1, the AC50 [1] was 16.4 µM [rising, partial curve, poor fit].
With CCCCCC(=O)N/N=C(\C)c1ccc(NC(=O)c2ccco2)cc1 the AC50 [1] was 10 µM [falling, partial curve, poor fit].
In the case of CC(=O)C[C@H](O)CC(=O)[C@@H]1OC(=O)CCCCCCCCc2ccccc21, the AC50 [1] is reported as 29.1 µM [falling, single point].
With COc1ccc(NC(=O)C(Cc2ccccc2)n2cccc2)c(OC)c1 (stereo not given) the AC50 [1] was 17.8 µM [rising, single point].
In the case of O=C(NN=C1CCCC1)c1ccc(O)cc1O, the AC50 [1] is reported as 14.1 µM [falling, partial curve, poor fit].
In the case of COc1ccc(C2N(c3ccccc3)CCN2c2ccccc2)cc1O, the AC50 [1] is reported as 0.316 µM [rising, full curve, poor fit].
With Cc1ccc(-c2nnc(SCC(=O)N3CCCC3)o2)cc1C the AC50 [1] was 12.6 µM [falling, single point].
In the case of CC(=O)[C@H]1[C@H](C#N)C[C@H]2[C@@H]3CC=C4C[C@@H](O)CC[C@]4(C)[C@H]3CC[C@@]21C, the AC50 [1] is reported as 4.61 µM [rising, partial curve, poor fit].
For Cc1ccc(S(=O)(=O)n2cc(-c3ccccc3)c3ccccc32)cc1, the AC50 [1] was 2.59 µM [rising, full curve] and the AC50 [2] was 2.91 µM [falling, full curve].
With COc1cc(CNn2c(C)n[nH]c2=S)cc(Cl)c1OCC(=O)NC(C)(C)C the AC50 [1] was 11.2 µM [rising, single point].
For CC1CN(c2ccccc2)c2nc3c(c(=O)[nH]c(=O)n3C)n2C1 (stereo not given), the AC50 [1] was 14.1 µM [rising, partial curve, poor fit].
For O=C(NNC(=O)c1ccc(Br)cc1)c1ccncc1, the AC50 [1] was 10 µM [falling, partial curve, poor fit].
In the case of Cc1cccc(-c2cc3nc(C)cc(C)n3n2)c1, the AC50 [1] is reported as 0.282 µM [rising, partial curve, poor fit].
In the case of CN(C(=O)c1cc2c(=O)n3ccccc3nc2n1C)C1CCCCC1, the AC50 [1] is reported as 8.91 µM [rising, partial curve, poor fit].
For COCCNC(=O)CSc1nc(-c2ccccc2)c(-c2ccccc2)o1, the AC50 [1] was 16.4 µM [falling, single point].
For CCC(CO)NCc1ccc(-c2ccccc2)cc1 (stereo not given), the AC50 [1] was 2.06 µM [rising, full curve, poor fit].
In the case of CCCn1nc(C(=O)NCc2ccccn2)c2ccccc2c1=O, the AC50 [1] is reported as 20.6 µM [falling, single point].
For COc1ccc(C(=O)Nc2oc(-c3ccccc3)c(-c3ccccc3)c2C#N)cc1OC, the AC50 [1] was 4.61 µM [rising, full curve].
For O=C(CNC(=O)c1cccs1)N/N=C/c1c(F)cccc1Cl, the AC50 [1] was 3.98 µM [falling, full curve, poor fit].
In the case of Cn1cc([N+](=O)[O-])c(C(=O)Nc2ccc3c(c2)OCCO3)n1, the AC50 [1] is reported as 14.1 µM [falling, partial curve, poor fit].
In the case of Cc1ccc(C(=O)CSc2nc3ccccc3c(=O)[nH]2)cc1, the AC50 [1] is reported as 11.6 µM [rising, partial curve, poor fit].
For Cc1cc(=O)[nH]c(SCC(=O)Nc2nc3ccccc3s2)n1, the AC50 [1] was 35.5 µM [falling, single point].
In the case of CC(=O)N1c2ccc(S(=O)(=O)N3CCC(C(=O)N4CCN(c5ccc(Cl)cc5)CC4)CC3)cc2CC1C (stereo not given), the AC50 [1] is reported as 14.1 µM [falling, single point].
With O=C1N=C(N2CCOCC2)S/C1=C\c1ccc(OS(=O)(=O)c2ccccc2)cc1 the AC50 [1] was 31.6 µM [falling, single point].
In the case of CCOc1ccccc1/C=N/NC(=O)CNC(=O)c1cccs1, the AC50 [1] is reported as 2.51 µM [falling, full curve, poor fit].
With COc1ccc(OCC(O)CN2CCN(c3ccccc3)CC2)cc1 (stereo not given) the AC50 [2] was 0.1 µM [falling, full curve, poor fit].
With OC(CCN1CCCCC1)(c1ccccc1)c1ccccc1 the AC50 [1] was 9.2 µM [rising, partial curve, poor fit].
In the case of OC(CNC1CCCCC1)COCCOc1ccc(Br)cc1 (stereo not given), the AC50 [1] is reported as 9.2 µM [falling, partial curve, poor fit].
With COc1ccc(N(CC(=O)Nc2ccc(OC)cc2OC)S(=O)(=O)c2ccccc2)cc1 the AC50 [1] was 0.447 µM [falling, full curve, poor fit].
With CC(=O)c1cccc(Nc2nc3ccccc3n3cnnc23)c1 the AC50 [1] was 11.2 µM [falling, partial curve, poor fit].
In the case of CCNc1nc(NCC)nc(N/N=C(\C)c2ccc(OC)cc2)n1, the AC50 [1] is reported as 11.2 µM [falling, partial curve].
For COc1ccc(NS(=O)(=O)c2cccc(C(=O)NN=Cc3ccc(OC)cc3OC)c2)cc1, the AC50 [1] was 0.651 µM [rising, full curve, poor fit].
With O=C(/C=C\Nc1cccc(F)c1)c1cccs1 the AC50 [1] was 23.1 µM [falling, partial curve].
With COc1cc(OC)c(N(C)S(=O)(=O)c2cccc(C(=O)Nc3nc(C)cs3)c2)cc1Cl the AC50 [1] was 23.1 µM [falling, single point].
For Cc1ccc(NC(=O)COc2ccc(Br)cc2CO)cc1S(=O)(=O)N1CCOCC1, the AC50 [1] was 32.6 µM [falling, single point].
In the case of N/C(=N\OCc1ccccc1)c1nonc1N, the AC50 [1] is reported as 35.5 µM [falling, single point].
In the case of FC(F)(F)c1cnc(COc2ccc(Cl)cc2Cl)c(Cl)c1, the AC50 [1] is reported as 25.1 µM [rising, single point].
For O=C(CN1CCSCC1)N1CCc2[nH]c3ccc(Br)cc3c2C1, the AC50 [1] was 23.1 µM [falling, single point].
With Cc1oc(-c2ccc3ccccc3c2)nc1CN(C)C(C)c1ccncn1 (stereo not given) the AC50 [1] was 3.55 µM [rising, single point].
For Cc1ccnc(NC(=O)c2ccc(OCc3c(C)noc3C)cc2)c1, the AC50 [1] was 4.11 µM [rising, partial curve, poor fit] and the AC50 [2] was 5.17 µM [falling, partial curve, poor fit].
For CC(=O)c1ccccc1NC(=O)c1ccc(N2CCCC2=O)cc1, the AC50 [1] was 2.31 µM [falling, full curve].
In the case of Cc1ccc(C(=O)NC(=C(Cl)Cl)S(=O)(=O)c2ccc(Cl)cc2)cc1, the AC50 [1] is reported as 31.6 µM [falling, single point].
For Cc1ccc(N2CCN(CC(O)COc3ccccc3)CC2)cc1 (stereo not given), the AC50 [1] was 3.16 µM [rising, full curve, poor fit].
With O=C(N/N=C/c1cccnc1)c1ccccc1OCc1ccc(Cl)cc1 the AC50 [1] was 2.24 µM [falling, full curve].
For CCNC(=O)COc1ccc(Br)cc1Cl, the AC50 [1] was 32.6 µM [rising, single point].
In the case of COc1cccc(C(=O)N/N=c2/oc3ccccc3cc2C(N)=O)c1, the AC50 [1] is reported as 10 µM [falling, single point].
In the case of CC(C)Cn1c(CN2CCN(C(=O)c3ccco3)CC2)nc2c1c(=O)n(C)c(=O)n2C, the AC50 [1] is reported as 12.6 µM [rising, single point].
With O=C(NCc1cccs1)C(=O)c1c[nH]c2ccccc12 the AC50 [1] was 1.26 µM [falling, full curve].
For O=C(NCCN1C(=O)S/C(=C\c2ccccc2)C1=O)C1CCN(S(=O)(=O)c2cccs2)CC1, the AC50 [1] was 4.11 µM [rising, full curve, poor fit].
For Cc1ccc(C)c(C(=O)C(C)Sc2nc3nn(-c4ccccc4)c(=O)c-3c3n2CCCCC3)c1 (stereo not given), the AC50 [1] was 28.2 µM [falling, partial curve, poor fit].
With COc1ccc(C(C(=O)NCC2CCCO2)N(C(=O)CNC(=O)c2ccco2)c2ccccc2)cc1OC (stereo not given) the AC50 [1] was 20 µM [rising, partial curve, poor fit].
For COc1ccc(C)cc1NC(=O)N1CCCc2ccccc21, the AC50 [1] was 3.55 µM [rising, partial curve, poor fit].
In the case of COc1cccc2c1Oc1cc([N+](=O)[O-])cc(N(C)C(C)=O)c1C=C2, the AC50 [1] is reported as 14.1 µM [rising, single point].
In the case of Nc1nnn(CC(=O)N/N=C/C=C/c2ccccc2)n1, the AC50 [1] is reported as 11.2 µM [rising, partial curve, poor fit].
With Cc1nc(N2CCC(C)CC2)c(C#N)c(C)c1[N+](=O)[O-] the AC50 [1] was 25.1 µM [rising, single point].
For CN(Cc1nc2ccccc2c(=O)[nH]1)C(=O)c1ccc(NC(=O)CSc2nnnn2C)cc1, the AC50 [1] was 4.11 µM [rising, full curve].
In the case of COc1ccccc1N1CCN(C(=O)CSc2nc3ccccc3o2)CC1, the AC50 [1] is reported as 0.651 µM [falling, full curve, poor fit].
For Cc1ccc(NC(=S)NCC23C=CC(O2)C2C(=O)N(c4ccc(C)cc4)C(=O)C23)cc1 (stereo not given), the AC50 [1] was 29.1 µM [falling, single point].
With CCCCC(=O)NC(=S)Nc1cccc(C(=O)O)c1 the AC50 [1] was 35.5 µM [falling, single point].
